# Assay results

Source: PubChem BioAssay AID1053133 (Broad Institute, 2014).

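Vaccinia-infected cells with a two-color viral stage reporter; Venus fluorescence read on a plate reader; the cell line is not named here; timing not stated here.
The test concentration is not given here.
Percent change in Venus reporter signal; lower (more negative) values mean stronger inhibition of that viral stage.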

Values are in %.
The controls that fix the scale are not given here.
Common to all entries: measured here: Venus reporter, other viral stage.
Part of the compounds only, not a random draw; the main read-out is not listed here.

compound	activity change (Venus) (%)
CN1C(=O)c2cc(NC(=O)c3cscn3)ccc2OC[C@H]2O[C@H](CC(=O)NCc3ccc(Cl)c(Cl)c3)CC[C@H]21	-33.09
C[C@@H]1CN([C@H](C)CO)C(=O)c2cc(NC(=O)NC3CCCCC3)ccc2O[C@H]1CN(C)Cc1ccc(Oc2ccccc2)cc1	-26.33
CO[C@H]1O[C@H](CO)[C@@H](OC(=O)Nc2cccc(F)c2)[C@H](OC(=O)Nc2ccccc2)[C@@H]1OC(=O)Nc1ccccc1	-44.72
Cc1ccc(-c2ccc3c(c2)O[C@H](CN(C)Cc2ccccc2)[C@H](C)CN([C@H](C)CO)S3(=O)=O)cc1	-81.75
COc1ccccc1NC(=O)N1CCCCN2[C@@H](CO)[C@@H](c3ccc(-c4cccc(F)c4)cc3)[C@@H]2C1	-76.63
CC(C)C#Cc1ccc([C@H]2[C@@H](CO)N3CCCCN(C(=O)c4ccc5c(c4)OCO5)C[C@@H]23)cc1	-41.08
C[C@@H](O)C#Cc1ccc2c(c1)O[C@H](CN(C)Cc1ccc(-c3ccccc3)cc1)[C@@H](C)CN([C@@H](C)CO)S2(=O)=O	-66.76
C[C@@H]1CCCCO[C@@H](CN(C)C(=O)c2ccccc2)[C@H](C)CN([C@H](C)CO)C(=O)c2cc(NS(=O)(=O)c3ccc(Cl)cc3)ccc2O1	-54.19
C[C@H]1CN([C@@H](C)CO)C(=O)c2cc(-c3ccncc3)cnc2O[C@@H]1CN(C)Cc1ccc(Oc2ccccc2)cc1	-68.34
CC(C)CC#Cc1ccc2c(c1)O[C@@H](CN(C)Cc1ccncc1)[C@H](C)CN([C@H](C)CO)S2(=O)=O	-53.13
O=C(C[C@H]1CC[C@@H]2[C@H](COC[C@H](O)CN2Cc2ccc(Oc3ccccc3)cc2)O1)N1CCCCC1	-26.18
C[C@H]1CN([C@@H](C)CO)S(=O)(=O)c2ccc(C#Cc3ccccc3)cc2O[C@@H]1CN(C)S(=O)(=O)c1cn(C)cn1	-23.51
COc1ccc(NC(=O)N2CCCCN3[C@@H](CO)[C@H](c4ccc(C#Cc5ccccc5)cc4)[C@@H]3C2)cc1	-37.73
COc1ccc(OC(=O)N(C)C[C@@H]2OCc3ccccc3-c3c(n(C)c4ccccc34)C(=O)N([C@H](C)CO)C[C@H]2C)cc1	-17.84
CCC(=O)N(C)C[C@@H]1Oc2cc(C#Cc3ccncc3)ccc2S(=O)(=O)N([C@H](C)CO)C[C@@H]1C	-7.557
C[C@@H]1CN([C@@H](C)CO)S(=O)(=O)c2ccc(C#Cc3ccccc3)cc2O[C@H]1CN(C)S(=O)(=O)c1cn(C)cn1	-33.5
COc1ccc(S(=O)(=O)Nc2ccc3c(c2)CC(=O)N([C@@H](C)CO)C[C@@H](C)[C@@H](CN(C)Cc2ccc(C(F)(F)F)cc2)O3)cc1	-43.32
C[C@@H]1CN([C@@H](C)CO)S(=O)(=O)c2ccc(C#CC3CCCC3)cc2O[C@H]1CN(C)S(C)(=O)=O	-40.73
COc1ccc(CN(C)C[C@H]2OCCCC[C@H](C)Oc3ccc(NS(=O)(=O)c4ccc(Cl)cc4)cc3C(=O)N([C@H](C)CO)C[C@@H]2C)cc1	-64.34
C[C@@H]1CN([C@H](C)CO)S(=O)(=O)c2ccc(C#Cc3ccncc3)cc2O[C@H]1CN(C)C(=O)Nc1ccc2c(c1)OCO2	-31.47
COc1ccc(NC(=O)N2CC(=O)N3[C@@H](CO)[C@H](c4ccc(C#CCC5CCCC5)cc4)[C@@H]3C2)cc1	-28.49
C[C@H]1CN([C@@H](C)CO)C(=O)c2c(c3ccccc3n2C)-c2ccccc2CO[C@H]1CN(C)Cc1cccc(C(F)(F)F)c1	-41
O=C(C1CC1)N1C[C@@H]2N[C@H](C1)[C@@H]2c1ccc(-c2ccncc2)cc1	-83.93
C[C@@H]1CN([C@@H](C)CO)S(=O)(=O)c2ccc(Br)cc2O[C@@H]1CN(C)S(=O)(=O)c1ccccc1	-30.31
C[C@@H]1CN([C@@H](C)CO)C(=O)c2c(c3ccccc3n2C)-c2ccccc2CO[C@H]1CN(C)Cc1ccc(Oc2ccccc2)cc1	-31.5
O=C(C[C@H]1CC[C@@H](NC(=O)c2ccccc2)[C@@H](CO)O1)Nc1ccc(-c2ccccc2)cc1	-32.87
CCCNC(=O)N1CC(=O)N2[C@H](CO)[C@@H](c3ccc(C#CCC4CCCC4)cc3)[C@H]2C1	-51.11
Cc1ccc(S(=O)(=O)N(C)C[C@H]2Oc3cc(Br)ccc3S(=O)(=O)N([C@H](C)CO)C[C@@H]2C)cc1	-29.25
Cc1noc(C)c1S(=O)(=O)Nc1ccc2c(c1)C(=O)N([C@@H](C)CO)C[C@@H](C)[C@@H](CN(C)Cc1ccc(Cl)c(Cl)c1)OCCCC[C@@H](C)O2	-59.42
C[C@H]1CN([C@@H](C)CO)C(=O)Cc2cc(NC(=O)NC3CCCCC3)ccc2O[C@H]1CN(C)Cc1ccccc1	-41.47
C/C=C/c1ccc(C2[C@@H]3CN(C(=O)Cc4ccccc4)C[C@H]2N3)cc1 (some centres undefined)	-30.45
COc1ccc(NC(=O)Nc2ccc3c(c2)C(=O)N([C@@H](C)CO)C[C@@H](C)[C@@H](CN(C)Cc2ccc(C(F)(F)F)cc2)O3)cc1	-53.82
COc1ccc(S(=O)(=O)Nc2ccc3c(c2)C(=O)N([C@@H](C)CO)C[C@@H](C)[C@H](CN(C)Cc2ccc(Oc4ccccc4)cc2)O3)cc1	-74.77
C[C@H](CO)N1C[C@H](C)[C@H](CN(C)C(=O)C2CCCCC2)Oc2ncc(C#CC3CCCCC3)cc2C1=O	-27.24
C[C@H]1CN([C@@H](C)CO)C(=O)c2c(c3ccccc3n2C)-c2ccccc2CO[C@H]1CN(C)C(=O)CCN(C)C	-84.53
COc1ccccc1NC(=O)N1CCCCN2[C@H](CO)[C@H](c3ccc(-c4ccc(C)cc4)cc3)[C@@H]2C1	-26.36
COc1ccc2c3c([nH]c2c1)[C@H](CO)N(C(=O)Nc1cccc(F)c1)CC31CCN(S(=O)(=O)c2cccc(C)c2)CC1	-30.25
Cc1noc(C)c1S(=O)(=O)N(C)C[C@@H]1OCc2ccccc2-c2c(n(C)c3ccccc23)C(=O)N([C@H](C)CO)C[C@@H]1C	-35.37
CCCC#Cc1ccc([C@@H]2[C@H](CO)N3CCCCN(S(=O)(=O)c4ccccc4F)C[C@@H]23)cc1	-37.66
C[C@@H]1CN([C@H](C)CO)S(=O)(=O)c2ccc(C#Cc3ccc(F)cc3)cc2O[C@H]1CN(C)S(=O)(=O)c1cn(C)cn1	-85.27
C[C@H](CO)N1C[C@H](C)[C@@H](CN(C)Cc2ccc(F)cc2)Oc2cc(C#CC3CC3)ccc2S1(=O)=O	-78.72
C[C@H]1CN([C@@H](C)CO)S(=O)(=O)c2ccc(C#CC3CCCC3)cc2O[C@@H]1CN(C)C(=O)Nc1cc(F)ccc1F	-56.49
COc1ccc(C#Cc2cnc3c(c2)C(=O)N([C@H](C)CO)C[C@H](C)[C@H](CN(C)S(=O)(=O)c2ccc(C)cc2)O3)cc1OC	-20.93
C[C@@H]1CCCCO[C@@H](CN(C)C(=O)C2CCCCC2)[C@H](C)CN([C@@H](C)CO)C(=O)c2cc(NS(=O)(=O)c3ccc(Cl)cc3)ccc2O1	-71.63
Cc1ccc(S(=O)(=O)Nc2ccc3c(c2)C(=O)N([C@@H](C)CO)C[C@@H](C)[C@H](CN(C)Cc2ccc(C(F)(F)F)cc2)OCCCC[C@@H](C)O3)cc1	-82.33
C[C@H]1CN([C@@H](C)CO)C(=O)c2c(c3ccccc3n2C)-c2ccccc2CO[C@@H]1CN(C)Cc1ccccc1	-45.08
C[C@@H]1CN([C@H](C)CO)C(=O)c2cc(NC(=O)Cc3ccccc3)ccc2O[C@@H]1CN(C)Cc1ccc(C(F)(F)F)cc1	-31.1
CC(C)CC#Cc1ccc2c(c1)O[C@H](CN(C)C(=O)Cc1ccncc1)[C@H](C)CN([C@@H](C)CO)S2(=O)=O	-33.68
COc1ccc2c3c(n(C)c2c1)[C@@H](CO)N(Cc1ccccc1F)CC31CCN(CC2CC2)CC1	-26.29
C[C@H]1CCCCO[C@@H](CN(C)Cc2ccc(C(F)(F)F)cc2)[C@@H](C)CN([C@@H](C)CO)C(=O)c2cc(NS(=O)(=O)c3ccc(Cl)cc3)ccc2O1	-42.9

Some entries from above, unchanged:

- C[C@@H]1CN([C@@H](C)CO)S(=O)(=O)c2ccc(C#Cc3ccccc3)cc2O[C@H]1CN(C)S(=O)(=O)c1cn(C)cn1 : activity change (Venus) -33.5%
- CC(C)CC#Cc1ccc2c(c1)O[C@H](CN(C)C(=O)Cc1ccncc1)[C@H](C)CN([C@@H](C)CO)S2(=O)=O : activity change (Venus) -33.68%
- COc1ccc2c3c(n(C)c2c1)[C@@H](CO)N(Cc1ccccc1F)CC31CCN(CC2CC2)CC1 : activity change (Venus) -26.29%
- CC(C)CC#Cc1ccc2c(c1)O[C@@H](CN(C)Cc1ccncc1)[C@H](C)CN([C@H](C)CO)S2(=O)=O : activity change (Venus) -53.13%
- CCCNC(=O)N1CC(=O)N2[C@H](CO)[C@@H](c3ccc(C#CCC4CCCC4)cc3)[C@H]2C1 : activity change (Venus) -51.11%
- COc1ccc(NC(=O)N2CC(=O)N3[C@@H](CO)[C@H](c4ccc(C#CCC5CCCC5)cc4)[C@@H]3C2)cc1 : activity change (Venus) -28.49%